# Experimental data: PubChem BioAssay AID1159578 (Peter MacCallum Cancer Centre, 2015)
# Assay: 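Knock-downs that alter how fast lymphatic endothelial cells migrate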 (primary screen)
# Cell system: human lymphatic endothelial cells
# Reagents: siRNA pool against human genes, 40 nM
# Time to read-out: 48 h after transfection
# Read-out: 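Cells stained with dye and imaged after a scratch; covered wound area and nuclei counted, duplicates averaged, migration set against mock wells and turned into a robust z-score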
# Direction: migration robust z-score: higher = faster migration into the scratch; migration relative to mock: higher = more scratch area covered than mock; nuclei per well: higher = more cells in the well
# Active means: 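Migration changed when robust z exceeds 2 or falls below -2 and mean nuclei number is at least 3300; otherwise not called changed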
# Meaning of the calls: active = migration changed; inactive = no migration change, or too few cells
# This is one part, drawn at random, of about 18,000 reagents. Over the whole deposit, about 1,030 (5.7%) got an active call. 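Inactive calls also include pools with fewer than 3300 nuclei, whose migration was not assessed.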 The raw values are shown without normalisation. Entries without a mark were called inactive.
Gene,migration robust z-score,migration class with cell-count check,migration relative to mock,"nuclei per well, duplicate mean"
"ZNF321P (zinc finger protein 321, pseudogene)",-1.69,migration z between -2 and 2; enough cells,0.44,4056
PLD1 (phospholipase D1),0.34,migration z between -2 and 2; enough cells,0.87,5732
SLC5A8,1.4,migration z between -2 and 2; enough cells,1.25,6424
MED30 (mediator complex subunit 30),1.55,migration z between -2 and 2; enough cells,1.29,5332
CHM (CHM Rab escort protein),-3.4 (active),migration z below -2; enough cells,0.15,4096
OR4X1 (olfactory receptor family 4 subfamily X member 1),-1.68,migration z between -2 and 2; enough cells,0.45,5571
CCNY (cyclin Y),-0.2,migration z between -2 and 2; enough cells,0.83,6725
TMEM258 (transmembrane protein 258),-0.79,migration z between -2 and 2; enough cells,0.68,5606
"METTL4 (methyltransferase 4, N6-adenosine)",0.01,migration z between -2 and 2; enough cells,0.88,5160
LARS1 (leucyl-tRNA synthetase 1),-0.76,migration z between -2 and 2; enough cells,0.69,6372
MARK2 (microtubule affinity regulating kinase 2),-0.99,under 3300 nuclei; migration not judged,0.62,2916
CRABP1 (cellular retinoic acid binding protein 1),-1.84,migration z between -2 and 2; enough cells,0.45,5090
MYEF2 (myelin expression factor 2),-0.96,migration z between -2 and 2; enough cells,0.64,5466
ANAPC5 (anaphase promoting complex subunit 5),0.36,migration z between -2 and 2; enough cells,0.88,6528
MMADHC (metabolism of cobalamin associated D),-1.31,migration z between -2 and 2; enough cells,0.54,5496
KRTAP19-7 (keratin associated protein 19-7),-0.55,migration z between -2 and 2; enough cells,0.74,5502
ZNF579 (zinc finger protein 579),0,migration z between -2 and 2; enough cells,0.88,4662
SLC13A5,-3.37 (active),migration z below -2; enough cells,0.16,3906
IGFALS,-0.9,migration z between -2 and 2; enough cells,0.65,5904
ULK1 (unc-51 like autophagy activating kinase 1),1.29,migration z between -2 and 2; enough cells,1.06,5608
GSTM5 (glutathione S-transferase mu 5),1.19,migration z between -2 and 2; enough cells,1.04,5632
RPS17 (ribosomal protein S17),-1.26,migration z between -2 and 2; enough cells,0.55,5806
CNTNAP3 (contactin associated protein family member 3),1.24,migration z between -2 and 2; enough cells,1.21,5500
SLMAP (sarcolemma associated protein),-1.27,migration z between -2 and 2; enough cells,0.55,5814
TXNL4A (thioredoxin like 4A),0.3,migration z between -2 and 2; enough cells,0.96,4903
TOR1B (torsin family 1 member B),0.16,migration z between -2 and 2; enough cells,0.93,4652
BLVRB (biliverdin reductase B),-1.2,migration z between -2 and 2; enough cells,0.58,3868
APBA3 (amyloid beta precursor protein binding family A member 3),-4.75 (active),migration z below -2; enough cells,-0.11,3670
NOTCH3 (notch receptor 3),-0.16,migration z between -2 and 2; enough cells,0.78,5322
ATG9A (autophagy related 9A),-0.2,migration z between -2 and 2; enough cells,0.84,5784
SPATA19 (spermatogenesis associated 19),2.05 (active),migration z above 2; enough cells,1.42,5890
WSB2 (WD repeat and SOCS box containing 2),-0.55,migration z between -2 and 2; enough cells,0.7,5792
SLC6A1,0.7,migration z between -2 and 2; enough cells,0.94,5973
DDRGK1 (DDRGK domain containing 1),0.82,migration z between -2 and 2; enough cells,1.1,7415
ZRANB3 (zinc finger RANBP2-type containing 3),1.34,migration z between -2 and 2; enough cells,1.06,6579
KLF6 (KLF transcription factor 6),-1.5,migration z between -2 and 2; enough cells,0.52,5752
ESM1 (endothelial cell specific molecule 1),-0.86,migration z between -2 and 2; enough cells,0.64,5264
IRF2 (interferon regulatory factor 2),0.65,migration z between -2 and 2; enough cells,0.93,6768
ADPGK (ADP dependent glucokinase),-0.78,migration z between -2 and 2; enough cells,0.66,7197
DYNC1I1 (dynein cytoplasmic 1 intermediate chain 1),0.65,migration z between -2 and 2; enough cells,0.93,6333
ASPH (aspartate beta-hydroxylase),0.36,migration z between -2 and 2; enough cells,0.88,3913
RFPL2 (ret finger protein like 2),-0.54,migration z between -2 and 2; enough cells,0.7,4476
LAMP5 (lysosome associated membrane protein 5),-0.02,migration z between -2 and 2; enough cells,0.88,5964
NAT8 (N-acetyltransferase 8 (putative)),0.46,migration z between -2 and 2; enough cells,0.9,5084
FIRRM (FIGNL1 interacting regulator of recombination and mitosis),1.58,migration z between -2 and 2; enough cells,1.29,5582
ZCCHC24 (zinc finger CCHC-type containing 24),1.32,migration z between -2 and 2; enough cells,1.23,5434
"B4GALT6 (beta-1,4-galactosyltransferase 6)",2.25 (active),migration z above 2; enough cells,1.24,6613
BLOC1S4 (biogenesis of lysosomal organelles complex 1 subunit 4),-0.02,migration z between -2 and 2; enough cells,0.88,5167
RORB (RAR related orphan receptor B),1.6,migration z between -2 and 2; enough cells,1.12,5578
C1QTNF4 (C1q and TNF related 4),-0.18,migration z between -2 and 2; enough cells,0.84,5682
CENPO (centromere protein O),-2.42 (active),migration z below -2; enough cells,0.26,6157
TCP10L3 (t-complex 10 like 3 (pseudogene)),0.4,migration z between -2 and 2; enough cells,0.99,6102
PTF1A (pancreas associated transcription factor 1a),1.28,migration z between -2 and 2; enough cells,1.22,5686
CT47A6 (cancer/testis antigen family 47 member A6),-0.52,migration z between -2 and 2; enough cells,0.76,6927
"ZFP91 (ZFP91 zinc finger protein, atypical E3 ubiquitin ligase)",0.66,migration z between -2 and 2; enough cells,1.06,5244
FKBP10 (FKBP prolyl isomerase 10),0.73,migration z between -2 and 2; enough cells,0.94,5106
CORT (cortistatin),0.64,migration z between -2 and 2; enough cells,1.04,5408

Entries listed so far with an active call, once more:
Gene,migration robust z-score,migration class with cell-count check,migration relative to mock,"nuclei per well, duplicate mean"
CHM (CHM Rab escort protein),-3.4 (active),migration z below -2; enough cells,0.15,4096
SLC13A5,-3.37 (active),migration z below -2; enough cells,0.16,3906
APBA3 (amyloid beta precursor protein binding family A member 3),-4.75 (active),migration z below -2; enough cells,-0.11,3670
SPATA19 (spermatogenesis associated 19),2.05 (active),migration z above 2; enough cells,1.42,5890
"B4GALT6 (beta-1,4-galactosyltransferase 6)",2.25 (active),migration z above 2; enough cells,1.24,6613
CENPO (centromere protein O),-2.42 (active),migration z below -2; enough cells,0.26,6157
